From PubChem BioAssay AID1487 (National Center for Advancing Translational Sciences (NCATS), 2009)
Among all 200,000 compounds or so, about 25 (0.01%) were called active. Inconclusive results, whose numbers are uncertain, are shown with a selection of clear calls. Calls come from the whole dose curve; as a rule, active = well fitted inhibition curve with a large enough effect in the signal ratio, with a control signal flat (not every such curve was filed as active); inconclusive = small, poorly fitted or top-dose-only effect, or effect the other way, or a change in a side signal; inactive = flat fitted curve, though single readings scatter; the % refers to the signal ratio. A potency beside an inconclusive call is a rough fit, not a confirmed value.

assay: qHTS Assay for Modulators of Lamin A Splicing; conditions: HeLa LMNA splicing GFP/RFP minigene ratio, 48 h; ratio change, negative = inhibition: at 46.1 µM (top of the series) unless noted
How it was run: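 S3 HeLa cells stably expressing lamin A-EGFP splicing minigene plus DsRed2, 600 cells/well, 48 h compound exposure at 37C. Laser-scanning cytometry; analysed as GFP (500-530 nm)/RFP (575-640 nm) total intensity ratio; 0.5% DMSO vehicle.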
% is set by controls: 0 for no effect and ±100 for the full control effect; potency is the fitted concentration of half-maximal effect.

| SMILES | ratio change, negative = inhibition | Potency |
| --- | --- | --- |
| Cc1nn(C)c2c1c(C(F)(F)F)cc(=O)n2CC(=O)NCc1ccccc1Cl | inactive |  |
| Cc1ccc(C(=O)CN2CCC(NC(=O)C3CCCCC3)CC2)cc1 | inactive |  |
| COc1ccc(S(=O)(=O)NCCSCc2cccc(C)c2)cc1Br | inconclusive: -38.7% |  |
| CCn1cc(C(=O)O)c(=O)c2cc(F)c(N3CCN(C)CC3)cc21 | inconclusive: 0.266% [at 46 µM] |  |
| Cc1ccc(S(=O)(=O)N(C)c2ccc(OCC(=O)Nc3nc(-c4ccccc4)cs3)cc2)cc1 |  | inconclusive: 11.2 µM [fluorescent, partial curve] |
| COc1cc(Cl)c(C)cc1NC(=O)CN1c2ccccc2S(=O)(=O)c2ccccc21 | inconclusive: -4.13% [at 46 µM] |  |
| Cc1occc1-c1nnc(SCC(=O)NCCc2ccccc2)n1Cc1ccccc1 | inconclusive: 13.1% |  |
| Cc1cccc(-n2ncc(C(=O)N3CCC(C)CC3)c2C2CCN(C(=O)OC(C)(C)C)CC2)c1 | inconclusive: -5.16% [at 46 µM] |  |
| Cc1ccc(S(=O)(=O)N(CC(=O)NC2CCCC2)c2cccc(C)c2)cc1 | inconclusive: 4.02% |  |
| CCC(Sc1nnc(C)s1)C(=O)Nc1nccs1 (stereo unspecified) | inactive |  |
| C/C(=C\CO)CCC(C)CCCC(C)CCCC(C)C (stereo unspecified) | inconclusive: 16.1% |  |
| Cc1cc(C)c(NC(=O)CCn2nnc3ccccc32)c(C)c1 | inconclusive: 0.978% [at 46 µM] |  |
| CCn1c(/C=N/c2nc3ccccc3n2C)nc2ccccc21 | inconclusive: 7.21% |  |
| CCCCO | inconclusive: -38.5% |  |
| Cc1cc(-c2n[nH]c(=S)n2/N=C/c2ccccc2[N+](=O)[O-])n[nH]1 | inactive |  |
| c1cncc(-c2nc3cc4ccccc4cc3[nH]2)c1 | inactive |  |
| Cc1cc(C)cc(NC(=S)N2CCC(N(C)CC3CCCO3)CC2)c1 (stereo unspecified) | inactive |  |
| Cn1c2ccccc2c2ncn(CCC3=CCCCC3)c(=O)c21 |  | inconclusive: 35.5 µM [fluorescent, single point] |
| COc1ccccc1-n1cnnc1SCC(=O)N1CC(=O)Nc2ccccc21 | inactive |  |
| CCOc1ccc(C(=O)CSCCC(=O)O)cc1 | inconclusive: 15.1% [at 9.22 µM] |  |
| Cc1ccc(NCCC(=O)c2ccc(Br)cc2)cc1 |  | inconclusive: 12.6 µM [inhibitor, single point] |

| SMILES | ratio change, negative = inhibition | Potency |
| --- | --- | --- |
| C=CCn1c(C2CC2)n[nH]c1=S | inconclusive: -2.91% [at 9.22 µM] |  |
| O=C(NCc1cccs1)c1ccccc1F | inactive |  |
| CCOc1cc(/C=C(/C#N)c2nc3ccccc3[nH]2)ccc1OCc1ccc(C(=O)O)o1 | inactive |  |
| CC(C)(C)C1=CC(=O)C(=O)C(C(C)(C)C)=C1 | inconclusive: -25.4% |  |
| CNC(=O)c1ccccc1S(=O)(=O)c1ccccc1C#N | inconclusive: 5.87% |  |
| CCc1ccc2nc(N3CCN(C(=O)c4ccco4)CC3)sc2c1 | inconclusive: 7.22% [at 46 µM] |  |
| CC1=CC(C)(C)N(S(=O)(=O)c2ccc(C)cc2)c2ccc(C)cc21 | inactive |  |
| O=C(OC(c1ccc(NS(=O)(=O)c2ccccc2)cc1)(C(F)(F)F)C(F)(F)F)c1ccccc1 |  | inconclusive: 12.6 µM [fluorescent, single point] |
| Cc1ccc(C)c(N2CCN(C(=O)c3c4c(nc5ccccc35)C(=O)N(C3CCCCC3)C4)CC2)c1 | inconclusive: -27.9% [at 46 µM] |  |
| Cc1cc(C)cc(SCc2noc(C(=O)NC(C)C)c2C(=O)O)c1 |  | inconclusive: 0.0355 µM [inhibitor, single point] |
| Cn1c(C(=O)NCc2cccc(F)c2)cc2cc(S(=O)(=O)N3CCCCC3)ccc21 | inactive |  |
| S=C1NC2(CCCCC2)Nc2ccccc21 | inconclusive: -5.87% [at 46 µM] |  |
| CC(=O)N(C)C1=C(N2CCOCC2)C(=O)c2ccccc2C1=O |  | inconclusive: 14.1 µM [falling, partial curve] |
| COc1cccc(OC)c1C(=O)Nc1ccc2c(c1)CCCN2S(=O)(=O)c1ccc(C)cc1 | inconclusive: -22.3% [at 46 µM] |  |
| COc1ccccc1CN1CCNC(=O)C1CC(=O)N(C)Cc1cnccn1 (stereo unspecified) | inconclusive: -9.46% [at 46 µM] |  |
| NNC(=O)COc1ncn(-c2ccccc2)n1 | inconclusive: 12.4% |  |
| O=C(NC(=S)Nc1ccc(Cl)cn1)C(c1ccccc1)c1ccccc1 |  | inconclusive: 35.5 µM [falling, single point] |
| COC(=O)CC1C(=O)NCCN1C(=O)CSc1nnc(Nc2ccc(OC)cc2)s1 (stereo unspecified) | inactive |  |
| O=C1CN(C(=O)CSc2nc3cc(Cl)ccc3c(=O)n2Cc2ccccc2)c2ccccc2N1 | inactive |  |
| COC(=O)c1ccc(Sc2nnnn2-c2ccccc2)c([N+](=O)[O-])c1 |  | inconclusive: 35.5 µM [activator, single point] |
| CCCOc1ccc(C(=O)C(CN2CCOCC2)c2ccccc2)cc1 (stereo unspecified) |  | inconclusive: 35.5 µM [cytotoxic, single point] |

| SMILES | ratio change, negative = inhibition | Potency |
| --- | --- | --- |
| CCOC(=O)N1CCN(C(=O)C2CCC(CNS(=O)(=O)c3ccc(Cl)cc3)CC2)CC1 (stereo unspecified) | inactive |  |
| O=C(CN1C(=O)C2(SCC(=O)N2c2cccc(Cl)c2)c2ccccc21)NC1CCCCC1 (stereo unspecified) | inactive |  |
| COC(=O)c1c(NC(NC(=O)C(C)C)C(Cl)(Cl)Cl)sc2c1CCCC2 (stereo unspecified) |  | inconclusive: 35.5 µM [fluorescent, single point] |
| COC(=O)c1ccc(CSc2nnc3sc4ccccc4n23)o1 | inconclusive: -1.64% |  |
| Cc1ccc(C)c(NC(=O)c2nc(-c3ccccc3)n(-c3ccccc3)n2)c1 | inconclusive: 14.3% |  |
| COc1cc2c(cc1NC(=O)C(C)OC(=O)C1CC(=O)N(Cc3ccco3)C1)oc1ccccc12 (stereo unspecified) | inactive |  |
| COc1ccc(C(C(=O)NCc2ccccc2)N(Cc2ccco2)C(=O)c2cnccn2)cc1 (stereo unspecified) | inconclusive: 3.76% [at 46 µM] |  |
| COc1cccc([C@@H]2Oc3ccc(OC)cc3C(=O)[C@H]2O)c1 | inconclusive: -56.3% |  |
| O=C(c1cc(-c2ccccc2Cl)on1)N1CCN(C(=O)c2ccco2)CC1 | inactive |  |
| COc1ccccc1N1CCN(C(=O)C2CCN(S(=O)(=O)c3ccc(F)cc3)CC2)CC1 | inconclusive: 13.4% |  |
| CCCNC(=O)C1CCN(c2nc3ccc(C)cc3[nH]2)CC1 | inconclusive: 5.2% [at 46 µM] |  |
| N=c1ccn(Cc2ccc(Cl)c(Cl)c2)cc1 |  | inconclusive: 11.2 µM [fluorescent, partial curve] |
| COc1ccc(OC)c(C(=O)CN2C(=O)N(c3ccc(C)cc3)S(=O)(=O)c3ccccc32)c1 | inconclusive: -0.127% [at 46 µM] |  |
| CC(=O)Nc1ccc(S(=O)(=O)N(C)c2ccccc2)cc1 | inactive |  |
| COc1ccccc1-c1nccc(NCc2cccc(C)c2)n1 |  | inconclusive: 3.55 µM [inhibitor, full curve, poor fit] |
| O=C(CSc1nc(O)cc(=O)n1-c1ccccc1)NC1CCCCC1 | inactive |  |
| Cc1no[n+]([O-])c1COc1ccc(/C=N/n2nnnc2N)cc1 | inconclusive: 24.7% |  |
| CCC(C)NC(=O)c1ccccc1NC(=O)COc1ccc(OC)cc1 (stereo unspecified) | inconclusive: -13.7% |  |
| CC(C)Cc1ccc(C(C)C(=O)Nc2ncccn2)cc1 (stereo unspecified) | inconclusive: 5.97% [at 46 µM] |  |
| COc1cccc(/C=C/C(=O)c2ccc[nH]2)c1 |  | inconclusive: 14.1 µM [falling, single point] |
| COc1ccccc1N1CCN(c2csc3ccccc3c2=O)CC1 | inconclusive: -17.9% [at 46 µM] |  |

Not a retest: 2 of the compounds above.

| SMILES | ratio change, negative = inhibition | Potency |
| --- | --- | --- |
| COc1ccccc1-n1cnnc1SCC(=O)N1CC(=O)Nc2ccccc21 | inactive |  |
| CCOc1ccc(C(=O)CSCCC(=O)O)cc1 | inconclusive: 15.1% [at 9.22 µM] |  |

(further entries)

| SMILES | ratio change, negative = inhibition | Potency |
| --- | --- | --- |
| CCc1ccc(Sc2cc(C(=O)NCCCN3CCC(C)CC3)c3ccccc3n2)cc1 | inconclusive: -37.7% [at 46 µM] |  |
| COc1ccccc1CNc1ccnc(-c2cccnc2)n1 | inconclusive: -19.2% |  |
| Cc1ccc(NCCC(=O)c2ccc(Cl)cc2)cc1 |  | inconclusive: 11.2 µM [inhibitor, single point] |
| O=C(NCc1cccnc1)C1c2ccccc2C(=O)N1C1CCCC1 (stereo unspecified) | inactive |  |
| Cc1ccccc1CS(=O)(=O)c1cnc2ccccc2n1 |  | inconclusive: 14.1 µM [inhibitor, partial curve] |
| Cc1cccc(N2CCN(C(=O)c3csc4ccccc34)CC2C)c1 (stereo unspecified) | inconclusive: -17.7% |  |
| COc1ccc(-c2nc(C)c(CCNS(=O)(=O)c3ccc(F)cc3)s2)cc1OC | inconclusive: -32.2% [at 46 µM] |  |
| CCCCNC(=O)C1CCN(c2nc3ccc(C)cc3[nH]2)CC1 | inconclusive: -15% [at 46 µM] |  |
| Cc1cccc(COCC(Cc2ccccc2)N2CCN(C(=O)c3cc(Cl)cc(Cl)c3)CCC2=O)c1 (stereo unspecified) |  | inconclusive: 35.5 µM [fluorescent, single point] |
| O=C(CCC1CCCC1)NCc1cccs1 | inactive |  |
| Cc1ccc(OCCNC(=O)C2CC(=O)N(c3ccc(C)cc3)C2)cc1 (stereo unspecified) | inactive |  |
| CN(C)C(=O)c1ccc(-c2nccc(NCc3ccccc3)n2)cc1 | inconclusive: -2.91% |  |
| Cn1cc(Cl)c(C(=O)NC2CCCCCC2)n1 | inactive |  |
| Cc1ccc(-c2nc(P(=O)(c3ccccc3)c3ccccc3)c(N3CCOCC3)o2)cc1 | inconclusive: -5.01% |  |
| CC(=O)c1ccc(NC(=O)CSc2c(C(C)C)cnc3c2c(=O)n(C)c(=O)n3C)cc1 | inactive |  |
| Cc1cccc2nc(CSc3nc4ccccc4[nH]3)cn12 | inconclusive: -16.4% [at 46 µM] |  |
| COc1cccc2c1C(=O)c1c(O)c3c(c(O)c1C2=O)C[C@](O)(C(C)=O)C[C@H]3O[C@@H]1C[C@H](N)[C@H](O)[C@H](C)O1 | inconclusive: -3.04% |  |
| COCCCn1c(SCC(=O)n2c(C)c(C)c3ccccc32)nnc1-c1ccoc1C | inactive |  |
